Results: the supplement of paper PMC10849652
The list shows a part of the results.

Sequences of proteins named here, by UniProt entry; tags and fusion partners are left off. A change or cut given only in a name is not applied to a line headed by its entry.
UniProt Q9UI26: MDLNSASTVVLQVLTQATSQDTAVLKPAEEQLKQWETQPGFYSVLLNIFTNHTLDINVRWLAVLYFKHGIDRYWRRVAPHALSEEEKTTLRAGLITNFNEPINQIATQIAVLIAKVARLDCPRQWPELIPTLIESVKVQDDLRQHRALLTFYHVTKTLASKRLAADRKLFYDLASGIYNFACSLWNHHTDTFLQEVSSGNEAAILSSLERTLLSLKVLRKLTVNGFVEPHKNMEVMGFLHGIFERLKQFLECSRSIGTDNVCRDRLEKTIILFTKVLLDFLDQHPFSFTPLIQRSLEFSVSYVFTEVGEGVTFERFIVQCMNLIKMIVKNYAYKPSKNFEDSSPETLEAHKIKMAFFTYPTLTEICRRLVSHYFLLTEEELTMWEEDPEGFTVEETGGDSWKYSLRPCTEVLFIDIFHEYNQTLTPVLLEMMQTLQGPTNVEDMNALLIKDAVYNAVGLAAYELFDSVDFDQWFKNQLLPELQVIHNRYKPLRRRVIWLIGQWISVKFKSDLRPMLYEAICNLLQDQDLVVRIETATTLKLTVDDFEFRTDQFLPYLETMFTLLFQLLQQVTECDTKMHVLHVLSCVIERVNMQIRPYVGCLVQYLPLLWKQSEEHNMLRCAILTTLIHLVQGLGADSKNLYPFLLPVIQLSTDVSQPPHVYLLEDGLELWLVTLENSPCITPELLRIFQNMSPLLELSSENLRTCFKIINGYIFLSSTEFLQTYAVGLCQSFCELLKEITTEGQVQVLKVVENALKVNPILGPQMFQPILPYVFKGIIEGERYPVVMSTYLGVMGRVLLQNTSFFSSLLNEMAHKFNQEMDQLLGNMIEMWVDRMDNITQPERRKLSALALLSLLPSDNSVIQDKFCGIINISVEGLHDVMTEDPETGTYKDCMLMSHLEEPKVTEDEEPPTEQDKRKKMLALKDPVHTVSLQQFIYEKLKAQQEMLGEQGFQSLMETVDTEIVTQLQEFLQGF
UniProt P33947: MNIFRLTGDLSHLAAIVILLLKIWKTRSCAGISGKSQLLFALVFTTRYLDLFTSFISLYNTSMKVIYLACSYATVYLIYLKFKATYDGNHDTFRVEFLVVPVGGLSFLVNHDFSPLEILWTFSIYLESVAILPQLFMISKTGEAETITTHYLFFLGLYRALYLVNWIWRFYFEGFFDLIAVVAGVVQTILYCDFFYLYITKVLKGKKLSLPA
UniProt Q9H1K1: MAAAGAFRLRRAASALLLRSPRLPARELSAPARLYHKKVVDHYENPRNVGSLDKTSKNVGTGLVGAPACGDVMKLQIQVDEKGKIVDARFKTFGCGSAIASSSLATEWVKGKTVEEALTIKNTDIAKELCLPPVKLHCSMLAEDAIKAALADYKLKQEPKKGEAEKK
UniProt Q96SY0, whole entry, looked up: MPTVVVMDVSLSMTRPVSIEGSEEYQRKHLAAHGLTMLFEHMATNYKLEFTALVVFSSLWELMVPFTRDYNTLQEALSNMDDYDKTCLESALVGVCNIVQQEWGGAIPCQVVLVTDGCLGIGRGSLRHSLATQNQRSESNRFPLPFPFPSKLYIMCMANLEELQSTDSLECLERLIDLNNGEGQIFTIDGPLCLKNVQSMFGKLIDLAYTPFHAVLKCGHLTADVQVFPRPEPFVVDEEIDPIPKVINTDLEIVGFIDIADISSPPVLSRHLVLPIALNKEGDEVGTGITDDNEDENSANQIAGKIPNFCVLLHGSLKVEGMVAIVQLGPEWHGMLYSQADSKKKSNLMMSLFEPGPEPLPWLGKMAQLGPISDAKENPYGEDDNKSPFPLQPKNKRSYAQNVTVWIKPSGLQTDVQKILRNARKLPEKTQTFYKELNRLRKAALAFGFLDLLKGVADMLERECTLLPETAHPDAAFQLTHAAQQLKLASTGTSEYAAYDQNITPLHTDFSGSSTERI
UniProt Q6DN90: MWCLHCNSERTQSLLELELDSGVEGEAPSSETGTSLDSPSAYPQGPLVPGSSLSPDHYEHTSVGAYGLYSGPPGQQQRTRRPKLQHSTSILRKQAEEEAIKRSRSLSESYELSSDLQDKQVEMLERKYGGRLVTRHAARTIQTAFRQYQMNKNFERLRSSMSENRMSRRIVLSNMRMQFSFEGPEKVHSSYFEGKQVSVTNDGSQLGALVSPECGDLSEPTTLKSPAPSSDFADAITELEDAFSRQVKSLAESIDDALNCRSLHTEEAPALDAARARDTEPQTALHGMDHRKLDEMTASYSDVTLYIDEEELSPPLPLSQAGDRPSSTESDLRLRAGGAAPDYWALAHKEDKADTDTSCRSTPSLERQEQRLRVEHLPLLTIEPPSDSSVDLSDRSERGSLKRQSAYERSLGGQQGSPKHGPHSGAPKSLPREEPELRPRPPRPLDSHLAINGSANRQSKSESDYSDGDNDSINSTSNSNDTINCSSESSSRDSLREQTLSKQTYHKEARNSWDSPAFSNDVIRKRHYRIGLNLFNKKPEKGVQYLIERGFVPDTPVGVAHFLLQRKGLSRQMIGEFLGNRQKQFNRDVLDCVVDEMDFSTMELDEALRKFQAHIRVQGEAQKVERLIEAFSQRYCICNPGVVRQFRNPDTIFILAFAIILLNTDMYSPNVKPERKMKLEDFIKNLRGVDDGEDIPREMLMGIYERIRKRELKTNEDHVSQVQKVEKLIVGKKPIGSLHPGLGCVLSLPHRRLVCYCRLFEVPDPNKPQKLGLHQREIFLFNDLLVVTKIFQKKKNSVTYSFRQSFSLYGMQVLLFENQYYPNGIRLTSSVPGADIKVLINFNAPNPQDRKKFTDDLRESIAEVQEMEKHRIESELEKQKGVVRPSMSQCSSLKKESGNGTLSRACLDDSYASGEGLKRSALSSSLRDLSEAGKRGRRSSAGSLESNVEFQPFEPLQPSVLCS
UniProt P51617, whole entry, looked up: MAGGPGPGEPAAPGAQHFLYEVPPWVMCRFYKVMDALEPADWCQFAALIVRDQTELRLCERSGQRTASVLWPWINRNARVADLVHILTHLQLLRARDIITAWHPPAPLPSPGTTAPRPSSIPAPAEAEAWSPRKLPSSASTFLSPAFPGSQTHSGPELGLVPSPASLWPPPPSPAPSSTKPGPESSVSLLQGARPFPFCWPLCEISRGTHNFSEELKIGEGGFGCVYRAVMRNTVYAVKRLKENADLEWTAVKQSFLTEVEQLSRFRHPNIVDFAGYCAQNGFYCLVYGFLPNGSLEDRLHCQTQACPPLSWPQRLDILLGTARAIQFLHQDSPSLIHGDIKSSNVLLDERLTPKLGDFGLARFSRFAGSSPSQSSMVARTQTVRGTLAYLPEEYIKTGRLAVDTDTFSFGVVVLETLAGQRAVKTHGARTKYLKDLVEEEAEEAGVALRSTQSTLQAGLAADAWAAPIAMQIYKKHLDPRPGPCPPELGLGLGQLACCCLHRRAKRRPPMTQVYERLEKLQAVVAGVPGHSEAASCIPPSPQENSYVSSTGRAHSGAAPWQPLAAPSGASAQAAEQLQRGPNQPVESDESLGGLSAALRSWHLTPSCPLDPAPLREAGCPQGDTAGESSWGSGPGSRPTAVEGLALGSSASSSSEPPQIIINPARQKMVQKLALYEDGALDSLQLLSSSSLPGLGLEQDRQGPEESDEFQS
UniProt Q8IU81: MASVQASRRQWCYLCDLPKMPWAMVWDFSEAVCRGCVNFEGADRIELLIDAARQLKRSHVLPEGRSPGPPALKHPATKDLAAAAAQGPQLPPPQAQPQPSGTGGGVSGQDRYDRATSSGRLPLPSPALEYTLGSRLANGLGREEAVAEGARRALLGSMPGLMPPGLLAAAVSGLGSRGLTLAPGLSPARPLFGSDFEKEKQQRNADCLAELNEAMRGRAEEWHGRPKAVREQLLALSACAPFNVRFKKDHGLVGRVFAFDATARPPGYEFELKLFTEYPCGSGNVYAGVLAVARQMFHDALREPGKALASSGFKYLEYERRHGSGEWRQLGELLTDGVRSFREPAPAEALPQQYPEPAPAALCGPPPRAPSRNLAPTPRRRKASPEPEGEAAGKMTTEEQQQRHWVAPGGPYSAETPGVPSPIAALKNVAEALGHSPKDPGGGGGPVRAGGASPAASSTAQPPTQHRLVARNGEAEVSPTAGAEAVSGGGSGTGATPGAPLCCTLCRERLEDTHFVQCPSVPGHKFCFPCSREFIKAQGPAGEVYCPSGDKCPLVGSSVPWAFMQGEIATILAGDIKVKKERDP
UniProt Q96CN7: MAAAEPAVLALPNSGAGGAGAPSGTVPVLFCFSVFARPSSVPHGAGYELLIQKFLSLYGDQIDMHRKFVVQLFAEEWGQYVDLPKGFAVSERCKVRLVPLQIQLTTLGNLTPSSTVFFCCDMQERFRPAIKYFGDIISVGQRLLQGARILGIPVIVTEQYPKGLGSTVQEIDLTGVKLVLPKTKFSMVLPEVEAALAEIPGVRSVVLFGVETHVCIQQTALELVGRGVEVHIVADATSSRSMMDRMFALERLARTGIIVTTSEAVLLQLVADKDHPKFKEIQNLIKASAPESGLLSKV
UniProt Q9UK76: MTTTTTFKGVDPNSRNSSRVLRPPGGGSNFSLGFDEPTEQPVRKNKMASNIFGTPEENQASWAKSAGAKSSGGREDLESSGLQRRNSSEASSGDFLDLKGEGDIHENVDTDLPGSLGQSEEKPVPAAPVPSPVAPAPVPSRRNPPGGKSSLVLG
UniProt O00410: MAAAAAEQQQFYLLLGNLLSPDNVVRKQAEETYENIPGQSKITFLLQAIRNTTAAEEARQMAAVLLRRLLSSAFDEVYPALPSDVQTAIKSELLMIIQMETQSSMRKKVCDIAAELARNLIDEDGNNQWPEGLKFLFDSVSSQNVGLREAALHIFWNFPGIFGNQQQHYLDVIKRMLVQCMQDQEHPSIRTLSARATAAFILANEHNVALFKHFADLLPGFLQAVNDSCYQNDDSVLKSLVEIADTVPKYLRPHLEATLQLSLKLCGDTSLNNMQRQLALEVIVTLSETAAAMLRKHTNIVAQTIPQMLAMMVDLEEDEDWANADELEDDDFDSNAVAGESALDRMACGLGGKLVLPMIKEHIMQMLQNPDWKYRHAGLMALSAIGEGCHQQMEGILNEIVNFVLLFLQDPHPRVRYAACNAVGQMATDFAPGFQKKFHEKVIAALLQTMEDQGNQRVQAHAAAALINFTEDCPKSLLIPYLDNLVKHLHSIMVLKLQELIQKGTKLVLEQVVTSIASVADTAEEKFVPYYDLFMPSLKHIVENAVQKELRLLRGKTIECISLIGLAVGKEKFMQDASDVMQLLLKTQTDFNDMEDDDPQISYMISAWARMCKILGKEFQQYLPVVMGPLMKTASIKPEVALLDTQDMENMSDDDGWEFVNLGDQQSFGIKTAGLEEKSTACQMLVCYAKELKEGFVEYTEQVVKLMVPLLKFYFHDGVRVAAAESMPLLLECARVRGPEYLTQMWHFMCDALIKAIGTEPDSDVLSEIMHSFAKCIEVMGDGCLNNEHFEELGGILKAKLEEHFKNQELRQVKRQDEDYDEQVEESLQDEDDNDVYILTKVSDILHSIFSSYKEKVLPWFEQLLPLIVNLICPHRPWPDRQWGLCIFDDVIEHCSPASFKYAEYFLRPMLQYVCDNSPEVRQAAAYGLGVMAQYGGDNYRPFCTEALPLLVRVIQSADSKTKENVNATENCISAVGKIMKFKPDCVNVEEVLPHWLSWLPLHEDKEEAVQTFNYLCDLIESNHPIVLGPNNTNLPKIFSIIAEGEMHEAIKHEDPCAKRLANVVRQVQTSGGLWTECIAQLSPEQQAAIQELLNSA
UniProt Q8TB96: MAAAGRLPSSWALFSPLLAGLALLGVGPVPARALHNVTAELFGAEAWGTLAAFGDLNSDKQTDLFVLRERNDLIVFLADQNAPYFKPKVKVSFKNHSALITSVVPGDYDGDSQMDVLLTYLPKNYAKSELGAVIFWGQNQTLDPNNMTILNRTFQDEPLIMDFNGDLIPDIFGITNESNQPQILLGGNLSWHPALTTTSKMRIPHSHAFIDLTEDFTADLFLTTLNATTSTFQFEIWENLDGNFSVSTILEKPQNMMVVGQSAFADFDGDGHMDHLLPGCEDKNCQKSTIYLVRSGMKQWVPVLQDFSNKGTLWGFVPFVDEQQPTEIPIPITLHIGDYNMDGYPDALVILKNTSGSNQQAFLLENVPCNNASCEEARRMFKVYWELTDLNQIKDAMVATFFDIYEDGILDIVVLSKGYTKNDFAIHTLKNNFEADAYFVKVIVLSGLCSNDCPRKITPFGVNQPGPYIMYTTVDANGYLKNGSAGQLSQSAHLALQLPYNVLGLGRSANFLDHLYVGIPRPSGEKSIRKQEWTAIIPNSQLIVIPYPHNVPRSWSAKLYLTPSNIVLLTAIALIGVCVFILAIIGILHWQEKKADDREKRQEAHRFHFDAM
UniProt Q9ULR0: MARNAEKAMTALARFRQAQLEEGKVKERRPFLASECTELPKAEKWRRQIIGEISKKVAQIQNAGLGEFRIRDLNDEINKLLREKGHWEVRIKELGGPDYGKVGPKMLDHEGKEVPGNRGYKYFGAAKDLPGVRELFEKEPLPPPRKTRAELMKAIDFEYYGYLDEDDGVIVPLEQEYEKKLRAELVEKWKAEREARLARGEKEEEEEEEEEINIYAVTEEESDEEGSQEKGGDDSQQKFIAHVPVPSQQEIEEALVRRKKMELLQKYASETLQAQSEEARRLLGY

Compound: CNc1nc(-c2ccc3c(N)n[nH]c3c2)cc(N2C[C@@H](C(=O)NC3CCCCC3)CC[C@H]2C)n1
Test: log2 fold change, soluble protein after heating vs DMSO (PISA); higher = thermal stabilisation; K562 lysate, 10 uM; active = over 0.2 and 3.5 SD of the protein, either way, in both replicates (recomputed)
In short: (§1)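 The values are log-two fold changes in thermal stability compared with solvent controls and come from duplicates. They were obtained by TMTpro 16plex LC-MS/MS, with channel sums equalised, on the supernatant after 21,000xg for 90 min. That supernatant came from crude K562 extract at 1 mg/mL protein treated with 10 μM compound for 30 min, heated for 3 min across 48°C-58°C, pooled and brought to 0.5% NP-40 at 4°C.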

Target	log2 fold change
ISOC2 (UniProt Q96AB3)	inactive: -0.024
INTS5 (UniProt Q6P9B9)	inactive: -0.047
ITPKA (UniProt P23677)	inactive: 0.015
IPO11 isoform 2 (UniProt Q9UI26)	inactive: 0.009
JAGN1 (UniProt Q8N5M9)	inactive: 0.257
KDM1B (UniProt Q8NB78)	inactive: 0.021
KDELR2 (UniProt P33947)	inactive: 0.067
INTS9 (UniProt Q9NV88)	inactive: -0.007
KCTD10 (UniProt Q9H3F6)	inactive: -0.042
ISYNA1 (UniProt Q9NPH2)	inactive: -0.021
ISCU (UniProt Q9H1K1)	inactive: -0.009
IQGAP1 (UniProt P46940)	inactive: -0.013
INTS14 (UniProt Q96SY0)	inactive: 0.02
KDM1A (UniProt O60341)	inactive: 0.013
KBTBD2 (UniProt Q8IY47)	inactive: -0.036
IQSEC1 (UniProt Q6DN90)	inactive: -0.033
IRAK1 (UniProt P51617)	inactive: 0.121
ITGAV (UniProt P06756)	inactive: 0.028
KCTD9 (UniProt Q7L273)	inactive: 0.008
IRF2BPL (UniProt Q9H1B7)	inactive: 0.048

Target	log2 fold change
IRF2BP1 (UniProt Q8IU81)	inactive: 0.091
ISOC1 (UniProt Q96CN7)	inactive: 0.03
KAT7 (UniProt O95251)	inactive: -0.079
JPT1 (UniProt Q9UK76)	inactive: 0.025
KCTD5 (UniProt Q9NXV2)	inactive: 0.04
INTS7 (UniProt Q9NVH2)	inactive: -0.017
IRF3 (UniProt Q14653)	inactive: 0.03
ITPK1 (UniProt Q13572)	inactive: 0.034
KAT8 (UniProt Q9H7Z6)	inactive: -0.012
IPO5 isoform 3 (UniProt O00410)	inactive: 0.01
ISCA1 isoform 2 (UniProt Q9BUE6)	inactive: 0.071
JPT2 isoform 3 (UniProt Q9H910)	inactive: 0.035
KCTD20 (UniProt Q7Z5Y7)	inactive: -0.025
ITFG1 (UniProt Q8TB96)	inactive: 0.043
KANSL3 (UniProt Q9P2N6)	inactive: 0.036
KCT2 (UniProt Q8NC54)	inactive: 0.013
JUND (UniProt P17535)	inactive: 0.016
ISY1 isoform 1 (UniProt Q9ULR0)	active: 0.366
ITGB1 (UniProt P05556)	inactive: 0.038

Compound: COC(=O)N[C@@H](C)CNc1nccc(-c2cn(C(C)C)nc2-c2cc(Cl)cc(NS(C)(=O)=O)c2F)n1 [encorafenib]
Test: as above
In short: as §1

Target	log2 fold change
ISOC2 (UniProt Q96AB3)	inactive: 0.014
INTS5 (UniProt Q6P9B9)	inactive: 0.02
ITPKA (UniProt P23677)	inactive: -0.021
IPO11 isoform 2 (UniProt Q9UI26)	inactive: -0.009
JAGN1 (UniProt Q8N5M9)	inactive: 0.054
KDM1B (UniProt Q8NB78)	inactive: 0
KDELR2 (UniProt P33947)	inactive: 0.017
INTS9 (UniProt Q9NV88)	inactive: 0.022
KCTD10 (UniProt Q9H3F6)	inactive: -0.008
ISYNA1 (UniProt Q9NPH2)	inactive: 0.016
ISCU (UniProt Q9H1K1)	inactive: -0.06
IQGAP1 (UniProt P46940)	inactive: -0.033
INTS14 (UniProt Q96SY0)	inactive: 0.006
KDM1A (UniProt O60341)	inactive: 0.003
KBTBD2 (UniProt Q8IY47)	inactive: 0.018
IQSEC1 (UniProt Q6DN90)	inactive: 0.061
IRAK1 (UniProt P51617)	active: 0.812
ITGAV (UniProt P06756)	inactive: 0.005
KCTD9 (UniProt Q7L273)	inactive: 0.021
IRF2BPL (UniProt Q9H1B7)	inactive: -0.017

Target	log2 fold change
IRF2BP1 (UniProt Q8IU81)	inactive: 0.025
ISOC1 (UniProt Q96CN7)	inactive: 0.017
KAT7 (UniProt O95251)	inactive: -0.056
JPT1 (UniProt Q9UK76)	inactive: -0.046
KCTD5 (UniProt Q9NXV2)	inactive: 0.019
INTS7 (UniProt Q9NVH2)	inactive: 0.067
IRF3 (UniProt Q14653)	inactive: 0.051
ITPK1 (UniProt Q13572)	inactive: -0.132
KAT8 (UniProt Q9H7Z6)	inactive: -0.004
IPO5 isoform 3 (UniProt O00410)	inactive: -0.007
ISCA1 isoform 2 (UniProt Q9BUE6)	inactive: -0.034
JPT2 isoform 3 (UniProt Q9H910)	inactive: -0.021
KCTD20 (UniProt Q7Z5Y7)	inactive: -0.165
ITFG1 (UniProt Q8TB96)	inactive: 0.078
KANSL3 (UniProt Q9P2N6)	inactive: 0.053
KCT2 (UniProt Q8NC54)	inactive: 0.031
JUND (UniProt P17535)	inactive: 0.028
ISY1 isoform 1 (UniProt Q9ULR0)	inactive: -0.03
ITGB1 (UniProt P05556)	inactive: -0.004
